The list is a part of this screen's results and no random one: it is rich in T/C values a quarter to a half above the control, in often repeated tests (any T/C) and in doses without a T/C. Other doses and runs of a compound stand elsewhere. T/C: endpoint of the treated group in % of that of the vehicle group. Some entries give survivors of the animals treated and no T/C: the source holds a T/C of zero for them, seemingly a mark for toxic or unscored doses. Some doses without a T/C left all or most animals alive at the check, yet need not have been tolerated: the source hardly ever lists a survival T/C far under the control, and the zero likely stands for such cases as well. Counts of survivors are from the toxicity check (mostly the fifth day) where no day follows; animals may have died later. Schedules are NCI's codes, taken here to give the interval after Q, in days (D) or hours (H), and the number of doses after X. Where survival is the endpoint, this PubChem deposit counts one and a half times the control or more as active, and values a quarter to a half above the control carry no call in these data; other NCI protocols may use other cut-offs. Some T/C values carry the count of animals alive at the toxicity check (mostly the fifth day); where none is given, no animal had died by that day. Some entries hold several experiments; their values stand side by side, smallest first.
Test system: BDF1 mice, P388 leukemia ip, median survival T/C
Assay: NCI In Vivo Anticancer Drug Screen. Data for tumor model P388 Leukemia (intraperitoneal) in B6D2F1 (BDF1) mice
Details: T/C endpoint: median survival time, higher T/C = longer survival
Method: The antitumor activity of compounds was measured in mice bearing transplantable tumors. Survival or tumor size were measured and the results are expressed as the measurement made in the treated group (T) divided by the measurement made in the vehicle treated control group (C). The tumor model used in this assay is P388 Leukemia (intraperitoneal) in B6D2F1 (BDF1) mice

[1] = dose: 100.0 mg/kg/injection, schedule: Q01DX009 (ip), vehicle: saline
[2] = dose: 100.0 mg/kg/injection, schedule: Q04DX003 (ip), vehicle: water
[3] = dose: 100.0 mg/kg/injection, schedule: Q01DX009 (ip), vehicle: saline with Tween-80
[4] = dose: 400.0 mg/kg/injection, schedule: Q01DX009 (ip), vehicle: saline with Tween-80

Cc1cc2nc(N)sc2cc1C
T/C (dose: 50.0 mg/kg/injection, schedule: Q01DX009 (ip), vehicle: other): 130 % of control

CC1CN1P(=O)(OCCC#N)N1CC1C (stereo not given)
T/C (dose: 44.0 mg/kg/injection, schedule: Q01DX009 (ip), vehicle: other): 145 % of control | T/C (dose: 50.0 mg/kg/injection, schedule: Q01DX009 (ip), vehicle: saline): 143 % of control | T/C (dose: 66.0 mg/kg/injection, schedule: Q01DX009 (ip), vehicle: other): 133 % of control | T/C [1]: 133 and 139 % of control [5 of 6 alive] | survivor count (dose: 400.0 mg/kg/injection, schedule: Q01DX009 (ip), vehicle: saline): 4 of 6 | survivor count (dose: 400.0 mg/kg/injection, schedule: Q04DX003 (ip), vehicle: other): 5 of 6

C1O[C@@H]1[C@@H]1CO1
T/C (dose: 200.0 mg/kg/injection, schedule: Q01DX010 (ip), vehicle: water): 127 % of control | survivor count (dose: 503.0 mg/kg/injection, schedule: Q01DX010 (ip), vehicle: water): 6 of 6 | survivor count (dose: 750.0 mg/kg/injection, schedule: Q01DX010 (ip), vehicle: water): 6 of 6

C1=C(C2=C[P+](c3ccccc3)(c3ccccc3)C=C(c3ccccc3)O2)OC(c2ccccc2)=C[P+]1(c1ccccc1)c1ccccc1
survivor count (dose: 50.0 mg/kg/injection, schedule: Q01DX005 (ip), vehicle: saline with Tween-80): 2 of 5 | survivor count (dose: 100.0 mg/kg/injection, schedule: Q01DX005 (ip), vehicle: saline with Tween-80): 0 of 5 | survivor count (dose: 200.0 mg/kg/injection, schedule: Q01DX005 (ip), vehicle: saline with Tween-80): 0 of 5

Cc1cc2c(c3oc(C4(C)OC4C4OC4C)cc(=O)c13)C(=O)c1c(O)c(C3CC(C)(N(C)C)C(O)C(C)O3)cc(C3CC(N(C)C)C(O)C(C)O3)c1C2=O (stereo not given)
survivor count (dose: 0.06 mg/kg/injection, schedule: Q01DX010 (ip), vehicle: other): 10 of 10 | survivor count (dose: 0.12 mg/kg/injection, schedule: Q01DX010 (ip), vehicle: other): 7 of 10 | survivor count (dose: 0.12 mg/kg/injection, schedule: Q01DX010 (ip), vehicle: saline): 8 of 10 | survivor count (dose: 0.24 mg/kg/injection, schedule: Q01DX010 (ip), vehicle: other): 2 of 10 | survivor count (dose: 0.24 mg/kg/injection, schedule: Q01DX010 (ip), vehicle: saline): 7 of 10 | survivor count (dose: 0.48 mg/kg/injection, schedule: Q01DX010 (ip), vehicle: other): 0 of 10 | survivor count (dose: 0.48 mg/kg/injection, schedule: Q01DX010 (ip), vehicle: saline): 2 of 10 | survivor count (dose: 0.96 mg/kg/injection, schedule: Q01DX010 (ip), vehicle: other): 0 of 10 | survivor count (dose: 0.96 mg/kg/injection, schedule: Q01DX010 (ip), vehicle: saline): 0 of 10 | T/C (dose: 0.3 micrograms/kg/injection, schedule: Q01DX010 (ip), vehicle: saline): 136 % of control | T/C (dose: 0.5 micrograms/kg/injection, schedule: Q01DX010 (ip), vehicle: saline): 136 % of control | T/C (dose: 1.0 micrograms/kg/injection, schedule: Q01DX010 (ip), vehicle: saline): 145 % of control | T/C (dose: 1.3 micrograms/kg/injection, schedule: Q01DX010 (ip), vehicle: steroid suspending solution): 145 % of control | T/C (dose: 2.5 micrograms/kg/injection, schedule: Q01DX010 (ip), vehicle: saline): 127 % of control | T/C (dose: 2.5 micrograms/kg/injection, schedule: Q01DX010 (ip), vehicle: steroid suspending solution): 145 % of control | T/C (dose: 3.0 micrograms/kg/injection, schedule: Q01DX009 (ip), vehicle: saline): 135 % of control | T/C (dose: 4.0 micrograms/kg/injection, schedule: Q01DX010 (ip), vehicle: other): 127 % of control | T/C (dose: 5.0 micrograms/kg/injection, schedule: Q01DX010 (ip), vehicle: saline): 127 and 133 % of control | T/C (dose: 7.5 micrograms/kg/injection, schedule: Q01DX010 (ip), vehicle: saline): 131 and 145 % of control | T/C (dose: 8.0 micrograms/kg/injection, schedule: Q01DX010 (ip), vehicle: carboxymethylcellulose (CMC)): 127 % of control | T/C (dose: 8.0 micrograms/kg/injection, schedule: Q01DX010 (ip), vehicle: other): 127 % of control | T/C (dose: 10.0 micrograms/kg/injection, schedule: Q01DX010 (ip), vehicle: saline): 129 and 136 % of control | T/C (dose: 15.0 micrograms/kg/injection, schedule: Q01DX010 (ip), vehicle: saline): 140 and 145 % of control | T/C (dose: 16.0 micrograms/kg/injection, schedule: Q01DX010 (ip), vehicle: carboxymethylcellulose (CMC)): 136 % of control | T/C (dose: 16.0 micrograms/kg/injection, schedule: Q01DX010 (ip), vehicle: other): 140 % of control | T/C (dose: 20.0 micrograms/kg/injection, schedule: Q01DX010 (ip), vehicle: saline): 133 % of control | T/C (dose: 30.0 micrograms/kg/injection, schedule: Q01DX010 (ip), vehicle: saline): 127 % of control | T/C (dose: 32.0 micrograms/kg/injection, schedule: Q01DX010 (ip), vehicle: carboxymethylcellulose (CMC)): 140 % of control | survivor count (dose: 32.0 micrograms/kg/injection, schedule: Q01DX010 (ip), vehicle: saline): 6 of 6 | survivor count (dose: 40.0 micrograms/kg/injection, schedule: Q01DX010 (ip), vehicle: saline): 6 of 6 | survivor count (dose: 60.0 micrograms/kg/injection, schedule: Q01DX010 (ip), vehicle: saline): 10 of 10

O=c1ncc(F)cn1C1OC(CO)C(O)C1O (stereo not given)
survivor count (dose: 100.0 mg/kg/injection, schedule: Q01DX005 (ip), vehicle: Klucel (hydroxypropylcellulose) (HPC)): 6 of 6 | survivor count (dose: 200.0 mg/kg/injection, schedule: Q01DX005 (ip), vehicle: Klucel (hydroxypropylcellulose) (HPC)): 6 of 6 | survivor count (dose: 400.0 mg/kg/injection, schedule: Q01DX005 (ip), vehicle: Klucel (hydroxypropylcellulose) (HPC)): 6 of 6 | survivor count (dose: 600.0 mg/kg/injection, schedule: Q01DX005 (ip), vehicle: Klucel (hydroxypropylcellulose) (HPC)): 4 of 6

NNc1nncc2ccccc12
survivor count [1]: 0 of 6

O=C(CI)Nc1ccc(O)c2ccccc12
survivor count (dose: 25.0 mg/kg/injection, schedule: Q01DX009 (ip), vehicle: water): 0 of 6 | survivor count (dose: 50.0 mg/kg/injection, schedule: Q04DX003 (ip), vehicle: water): 0 of 6 | survivor count [2]: 0 of 6

Cc1cc(C)c(C)[nH]1
survivor count (dose: 100.0 mg/kg/injection, schedule: Q01DX009 (ip), vehicle: water): 1 of 6 | survivor count [2]: 0 of 6

O=C1c2ccccc2C(=O)c2c(Sc3ccccc3)cccc21
survivor count [3]: 6 of 6 | survivor count [4]: 6 of 6

COc1c(CO)c2c(c(OC)c1OC)-c1ccc(OC)c(=O)cc1[C@@H](NC(C)=O)CC2
T/C (dose: 6.25 mg/kg/injection, schedule: Q01DX009 (ip), vehicle: Klucel (hydroxypropylcellulose) (HPC)): 144 % of control | T/C (dose: 12.5 mg/kg/injection, schedule: Q01DX009 (ip), vehicle: Klucel (hydroxypropylcellulose) (HPC)): 144 % of control | T/C (dose: 100.0 mg/kg/injection, schedule: Q01DX009 (ip), vehicle: Klucel (hydroxypropylcellulose) (HPC)): 126 % of control

O=C(Nc1ccc(CCNC2=NCCN2)cc1)c1ccc(C(=O)Nc2ccc(CCNC3=NCCN3)cc2)cc1
T/C (dose: 4.0 mg/kg/injection, schedule: Q01DX009 (ip), vehicle: saline): 130 % of control

CCOc1nc(S(=O)(=O)CC)ncc1C
survivor count (dose: 50.0 mg/kg/injection, schedule: Q01DX009 (ip), vehicle: saline with Tween-80): 6 of 6 | survivor count [3]: 5 of 6 | survivor count (dose: 200.0 mg/kg/injection, schedule: Q01DX009 (ip), vehicle: saline with Tween-80): 6 of 6 | survivor count (dose: 300.0 mg/kg/injection, schedule: Q01DX009 (ip), vehicle: saline with Tween-80): 5 of 6 | survivor count [4]: 3 of 6
